Drug screen on melanoma cell lines: apoptosis marker

Values as published with doi:10.1371/journal.pone.0140310, rounded.

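Human melanoma cells were exposed to two drugs together for 72 h in 1,536-well plates and read by automated microscopy after fixing and staining. The read-out is the fraction of cleaved-PARP-positive nuclei, in % of that fraction in the DMSO control; 200 means twice the control level of this apoptosis marker. Every drug was used at one fixed concentration, the higher of two screened. The file gives one value for each pair and line, without errors, so small differences may be noise. The marker varies much from line to line, for technical or biological reasons.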
This is part of the screen, not chosen by result.
An entry leaves out what has no value listed here.
A dash means that no value is listed here.

Compounds and concentrations:
FH535, 5000 nM: Cc1cc([N+](=O)[O-])ccc1NS(=O)(=O)c1cc(Cl)ccc1Cl
CX-4945, 2000 nM: O=C(O)c1ccc2c(c1)nc(Nc1cccc(Cl)c1)c1ccncc12
darinaparsin, 2000 nM: C[As](C)SC[C@H](NC(=O)CC[C@H](N)C(=O)O)C(=O)NCC(=O)O
sunitinib, 2000 nM: CCN(CC)CCNC(=O)c1c(C)[nH]c(/C=C2\C(=O)Nc3ccc(F)cc32)c1C
SU6656, 2000 nM: CN(C)S(=O)(=O)c1ccc2c(c1)/C(=C/c1cc3c([nH]1)CCCC3)C(=O)N2
ruxolitinib, 5000 nM: N#CC[C@H](C1CCCC1)n1cc(-c2ncnc3[nH]ccc23)cn1
NVP-BEZ235, 20 nM: Cn1c(=O)n(-c2ccc(C(C)(C)C#N)cc2)c2c3cc(-c4cnc5ccccc5c4)ccc3ncc21
ENMD-2076, 200 nM: Cc1cc(Nc2cc(N3CCN(C)CC3)nc(/C=C/c3ccccc3)n2)n[nH]1
STA-4783, 30 nM: CN(NC(=O)CC(=O)NN(C)C(=S)c1ccccc1)C(=S)c1ccccc1
embelin, 6000 nM: CCCCCCCCCCCC1=C(O)C(=O)C=C(O)C1=O
PF-562271, 400 nM: CN(c1ncccc1CNc1nc(Nc2ccc3c(c2)CC(=O)N3)ncc1C(F)(F)F)S(C)(=O)=O

Results for SU6656 + PF-562271 are SK-MEL-2: 76.2; RPMI-7951: 143; A2058: 120; SK-MEL-5: 150; RVH-421: 50.6.
Results for ENMD-2076 + STA-4783 are RPMI-7951: 263; A2058: 2380; SK-MEL-5: 155; RVH-421: 156.
Results for darinaparsin + sunitinib are SK-MEL-2: 98.1; RPMI-7951: 89.6; A2058: 204; SK-MEL-5: 349; RVH-421: 142.
Results for ENMD-2076 + FH535 are SK-MEL-2: 94.5; RPMI-7951: 142; A2058: 114; SK-MEL-5: 289; RVH-421: 122; 501mel: 81.0.
Results for ENMD-2076 + PF-562271 are SK-MEL-2: 97.7; RPMI-7951: 85.2; A2058: 158; SK-MEL-5: 107; RVH-421: 114.
Results for darinaparsin + STA-4783 are SK-MEL-2: 84.0; RPMI-7951: 245; A2058: 3180; SK-MEL-5: 358; RVH-421: 333.
Results for STA-4783 + NVP-BEZ235 are RPMI-7951: 126; A2058: 2130; SK-MEL-5: 661; RVH-421: 147.
Results for FH535 + embelin are SK-MEL-2: 57.3; RPMI-7951: 149; A2058: 207; SK-MEL-5: 80.2; RVH-421: 131; 501mel: 200.
Results for NVP-BEZ235 + SU6656 are SK-MEL-2: 46.2; RPMI-7951: 124; A2058: 158; SK-MEL-5: 44.1; RVH-421: 182.
Results for ruxolitinib + NVP-BEZ235 are SK-MEL-2: 44.7; RPMI-7951: 45.9; A2058: 357; SK-MEL-5: 460; RVH-421: 92.6.
Results for FH535 + STA-4783 are SK-MEL-2: 1170; RPMI-7951: 101; A2058: 4080; SK-MEL-5: 283; RVH-421: 751; 501mel: 8360.
Results for ruxolitinib + ENMD-2076 are SK-MEL-2: 114; RPMI-7951: 132; A2058: 170; SK-MEL-5: 218; RVH-421: 142.
Results for sunitinib + NVP-BEZ235 are SK-MEL-2: 91.5; RPMI-7951: 162; A2058: 227; SK-MEL-5: 1030; RVH-421: 158.
Results for STA-4783 + SU6656 are SK-MEL-2: 143; RPMI-7951: 130; A2058: 3650; SK-MEL-5: 83.1; RVH-421: 140.
Results for ruxolitinib + darinaparsin are SK-MEL-2: 121; RPMI-7951: 189; A2058: 192; SK-MEL-5: 334; RVH-421: 126.
Results for sunitinib + PF-562271 are SK-MEL-2: 115; RPMI-7951: 80.5; A2058: 156; SK-MEL-5: 378; RVH-421: 67.8.
Results for NVP-BEZ235 + FH535 are SK-MEL-2: 89.9; RPMI-7951: 295; A2058: 136; SK-MEL-5: 159; RVH-421: 58.2; 501mel: 180.
Results for NVP-BEZ235 + PF-562271 are SK-MEL-2: 188; RPMI-7951: 183; A2058: 572; SK-MEL-5: 573; RVH-421: 165.
Results for PF-562271 + darinaparsin are SK-MEL-2: 243; RPMI-7951: 86.5; A2058: 149; SK-MEL-5: 125; RVH-421: 115.
Results for STA-4783 + ruxolitinib are SK-MEL-2: 14.7; RPMI-7951: 324; A2058: 3770; SK-MEL-5: 344; RVH-421: 199.
Results for embelin + sunitinib are SK-MEL-2: 110; RPMI-7951: 65.4; A2058: 280; SK-MEL-5: 225; RVH-421: 267; 501mel: 266.
Results for darinaparsin + embelin are SK-MEL-2: 127; RPMI-7951: 78.1; A2058: 116; SK-MEL-5: 94.8; RVH-421: 281; 501mel: 71.6.
Results for CX-4945 + STA-4783 are SK-MEL-2: 76.7; RPMI-7951: 132; A2058: 1200; SK-MEL-5: 68.0; RVH-421: 122.
Results for darinaparsin + FH535 are SK-MEL-2: 22.5; RPMI-7951: 88.4; A2058: 88.1; SK-MEL-5: 37.1; RVH-421: 216; 501mel: 208.
Results for CX-4945 + NVP-BEZ235 are SK-MEL-2: 155; RPMI-7951: 207; A2058: 161; SK-MEL-5: 88.6; RVH-421: 170.
Results for ENMD-2076 + embelin are SK-MEL-2: 113; RPMI-7951: 63.1; A2058: 287; SK-MEL-5: 148; RVH-421: 214; 501mel: 132.
Results for CX-4945 + darinaparsin are SK-MEL-2: 310; RPMI-7951: 155; A2058: 169; SK-MEL-5: 166; RVH-421: 160.
Results for sunitinib + FH535 are SK-MEL-2: 82.6; RPMI-7951: 220; A2058: 468; SK-MEL-5: 102; RVH-421: 103; 501mel: 256.
Results for SU6656 + CX-4945 are SK-MEL-2: 112; RPMI-7951: 113; A2058: 254; SK-MEL-5: 218; RVH-421: 505.
Results for ENMD-2076 + CX-4945 are SK-MEL-2: 288; RPMI-7951: 421; A2058: 230; SK-MEL-5: 248; RVH-421: 157.

The last 3 entries again:

Combination,SK-MEL-2,RPMI-7951,A2058,SK-MEL-5,RVH-421,501mel
sunitinib + FH535,82.6,220,468,102,103,256
SU6656 + CX-4945,112,113,254,218,505,-
ENMD-2076 + CX-4945,288,421,230,248,157,-